No constants are given. Whether binding was seen depends on the method and setting. Binding seen in cells or lysates may run through a third protein. Binding can be weak; no strength is given.
Target: CD33, endogenous on freshly isolated human blood monocytes (human (endogenous in blood monocytes))
Assay: proximity ligation; Duolink on freshly isolated human monocytes, untreated or treated with C1q (20 ug/ml) for 40 min, fixed in paraformaldehyde; primary antibodies to the two receptors

binding: binds
B1: CD14, endogenous on human blood monocytes (receptor, UniProt P08571 20-345)
chain: TTPEPCELDDEDFRCVCNFSEPQPDWSEAFQCVSAVEVEIHAGGLNLEPFLKRVDADADPRQYADTVKALRVRRLTVGAAQVPAQLLVGALRVLAYSRLKELTLEDLKITGTMPPLPLEATGLALSSLRLRNVSWATGRSWLAELQQWLKPGLKVLSIAQAHSPAFSCEQVRAFPALTSLDLSDNPGLGERGLMAALCPHKFPAIQNLALRNTGMETPTGVCAALAAAGVQPHSLDLSHNSLRATVNPSAPRCMWSSALNSLNLSFAGLEQVPKGLPAKLRVLDLSCNRLNRAPQPDELPEVDNLTLDGNPFLVPGTALPHEGSMN

Source: paper PMC5412647
